Measured values as given in patent publication US10118944B2, “Cell penetrating peptides for intracellular delivery of molecules” (AADIGEN, LLC, priority 2012, dated 2018).

Experiments:
[1] = tested on: Hela; assay: VEPEP-5 mediated delivery of small hydrophobic molecules, inhibition of proliferation; assay type: cell-based; conditions: Homo sapiens, free drug without carrier
Text: (§1) VEPEP-5 peptides (Short-6, Short-7 and Short 11) have been used for the delivery of different small hydrophobic molecules including doxorubicin and porphyrin on different cell lines including primary cell lines and challenging cell lines. VEPEP-5 peptides form stable particles with small aromatic molecules (table 2). Effect of VEPEP-5 mediated delivery of doxorubicin and porphyrin have been investigated on cancer cell viability. […] The impact of carrier peptides to improve cellular uptake of small molecule drugs was estimated by following inhibition of proliferation of cancer cells.

[2] = tested on: MCF7; assay: as above; assay type: cell-based; conditions: Homo sapiens, free drug without carrier
Text: as §1

IC50 [1]: 10 µM
IC50 [2]: 9 µM
SMILES: COc1cccc2c1C(=O)c1c(O)c3c(c(O)c1C2=O)C[C@@](O)(C(=O)CO)C[C@@H]3O[C@H]1C[C@H](N)[C@H](O)[C@H](C)O1 [Doxo, doxorubicin]
